PubChem BioAssay AID1224830, NIAID, 2016
The whole screen tested about 18,000 reagents; this is an unselected part. Of all reagents, about 2,900 (16%) were called active. 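Calls are made per well; low scores hint the gene aids the LPS response, high scores that it dampens it.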 Repeated entries: four replicate wells of each siRNA pool. No sequences are given here.

Aim: 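Host factors that control LPS-induced TNF expression in human macrophages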 (primary screen)
System: human THP-1 monocytic leukaemia cells, TNF dual-luciferase reporter clone, PMA-differentiated to macrophage-like cells
Reagent: siRNA pool against human genes, 50 nM
Duration: LPS for 4 h, given about 3 days after siRNA transfection
Challenge: bacterial LPS (TLR4 ligand), 10 ng/ml
Measurement: 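Ratio of firefly to renilla light, scaled to the plate median and expressed as a robust z-score per replicate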
Direction: TNF reporter robust z-score: higher = stronger TNF reporter response to LPS
Hit rule: 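Each well counts as active if its z-score is over 2.8 or under -1.5; controls are left without a call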

ACOT2 (acyl-CoA thioesterase 2): TNF reporter robust z-score = -0.75; activity call = inactive
ACOT2 (acyl-CoA thioesterase 2): TNF reporter robust z-score = -0.42; activity call = inactive
ACOT2 (acyl-CoA thioesterase 2): TNF reporter robust z-score = -0.61; activity call = inactive
ACOT2 (acyl-CoA thioesterase 2): TNF reporter robust z-score = -0.81; activity call = inactive
RGS20 (regulator of G protein signaling 20): TNF reporter robust z-score = -1.63; activity call = active
RGS20 (regulator of G protein signaling 20): TNF reporter robust z-score = -1.39; activity call = inactive
RGS20 (regulator of G protein signaling 20): TNF reporter robust z-score = -1.79; activity call = active
RGS20 (regulator of G protein signaling 20): TNF reporter robust z-score = -1.35; activity call = inactive
WDR89 (WD repeat domain 89): TNF reporter robust z-score = -1.79; activity call = active
WDR89 (WD repeat domain 89): TNF reporter robust z-score = -0.5; activity call = inactive
WDR89 (WD repeat domain 89): TNF reporter robust z-score = -0.46; activity call = inactive
WDR89 (WD repeat domain 89): TNF reporter robust z-score = -1.08; activity call = inactive
RASIP1 (Ras interacting protein 1): TNF reporter robust z-score = 0.15; activity call = inactive
RASIP1 (Ras interacting protein 1): TNF reporter robust z-score = -0.53; activity call = inactive
RASIP1 (Ras interacting protein 1): TNF reporter robust z-score = -1.02; activity call = inactive
RASIP1 (Ras interacting protein 1): TNF reporter robust z-score = 0.58; activity call = inactive
TMC2 (transmembrane channel like 2): TNF reporter robust z-score = 0.22; activity call = inactive
TMC2 (transmembrane channel like 2): TNF reporter robust z-score = 0.46; activity call = inactive
TMC2 (transmembrane channel like 2): TNF reporter robust z-score = 0.47; activity call = inactive
TMC2 (transmembrane channel like 2): TNF reporter robust z-score = 0.59; activity call = inactive
RLN1 (relaxin 1): activity call = inactive
RLN1 (relaxin 1): TNF reporter robust z-score = 0.14; activity call = inactive
RLN1 (relaxin 1): TNF reporter robust z-score = 0.04; activity call = inactive
RLN1 (relaxin 1): TNF reporter robust z-score = -0.02; activity call = inactive
RLN1 (relaxin 1): TNF reporter robust z-score = -0.85; activity call = inactive
SDHC (succinate dehydrogenase complex subunit C): TNF reporter robust z-score = -1.53; activity call = active
SDHC (succinate dehydrogenase complex subunit C): TNF reporter robust z-score = -1.44; activity call = inactive
SDHC (succinate dehydrogenase complex subunit C): TNF reporter robust z-score = -0.6; activity call = inactive
SDHC (succinate dehydrogenase complex subunit C): TNF reporter robust z-score = -1.22; activity call = inactive
GDI1 (GDP dissociation inhibitor 1): TNF reporter robust z-score = -0.24; activity call = inactive
GDI1 (GDP dissociation inhibitor 1): TNF reporter robust z-score = -0.15; activity call = inactive
GDI1 (GDP dissociation inhibitor 1): TNF reporter robust z-score = 0.27; activity call = inactive
GDI1 (GDP dissociation inhibitor 1): TNF reporter robust z-score = 0.76; activity call = inactive
